Article doi:10.1101/2022.07.23.501257
Where two headings read alike, the source gives them in different places. These are yes or no findings as the source states them, for the method shown. Binding calls can cover weak binding; strength is not graded here. Values belong to the molecule of their own block, whether it stands above or below them.

Chains of the proteins cited; added tags and fusions are not shown. Lines headed by an entry give the natural chain unless they say otherwise; changes in a name come on top.
UniProt Q62765: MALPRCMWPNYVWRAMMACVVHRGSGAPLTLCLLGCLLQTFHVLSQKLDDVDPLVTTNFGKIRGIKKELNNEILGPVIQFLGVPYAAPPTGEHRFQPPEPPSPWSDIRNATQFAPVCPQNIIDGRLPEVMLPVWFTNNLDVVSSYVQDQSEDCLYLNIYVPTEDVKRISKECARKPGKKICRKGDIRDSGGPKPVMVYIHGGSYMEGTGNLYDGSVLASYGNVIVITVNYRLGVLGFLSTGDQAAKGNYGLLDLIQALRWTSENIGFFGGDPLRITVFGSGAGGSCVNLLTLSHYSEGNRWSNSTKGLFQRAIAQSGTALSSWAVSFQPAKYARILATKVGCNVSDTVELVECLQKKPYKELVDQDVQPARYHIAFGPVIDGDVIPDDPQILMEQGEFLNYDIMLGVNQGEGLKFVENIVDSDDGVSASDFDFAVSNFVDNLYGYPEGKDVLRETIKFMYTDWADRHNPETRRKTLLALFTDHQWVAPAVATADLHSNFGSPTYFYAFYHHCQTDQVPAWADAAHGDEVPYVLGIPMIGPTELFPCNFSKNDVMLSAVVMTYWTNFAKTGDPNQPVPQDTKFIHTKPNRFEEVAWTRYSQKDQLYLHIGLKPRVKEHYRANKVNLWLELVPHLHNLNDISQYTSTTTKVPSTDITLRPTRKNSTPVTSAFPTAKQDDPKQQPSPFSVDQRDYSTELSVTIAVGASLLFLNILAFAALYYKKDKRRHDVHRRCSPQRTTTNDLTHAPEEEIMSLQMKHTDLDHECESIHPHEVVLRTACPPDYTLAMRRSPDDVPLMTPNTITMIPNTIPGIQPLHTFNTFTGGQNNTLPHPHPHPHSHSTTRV
UniProt Q62888: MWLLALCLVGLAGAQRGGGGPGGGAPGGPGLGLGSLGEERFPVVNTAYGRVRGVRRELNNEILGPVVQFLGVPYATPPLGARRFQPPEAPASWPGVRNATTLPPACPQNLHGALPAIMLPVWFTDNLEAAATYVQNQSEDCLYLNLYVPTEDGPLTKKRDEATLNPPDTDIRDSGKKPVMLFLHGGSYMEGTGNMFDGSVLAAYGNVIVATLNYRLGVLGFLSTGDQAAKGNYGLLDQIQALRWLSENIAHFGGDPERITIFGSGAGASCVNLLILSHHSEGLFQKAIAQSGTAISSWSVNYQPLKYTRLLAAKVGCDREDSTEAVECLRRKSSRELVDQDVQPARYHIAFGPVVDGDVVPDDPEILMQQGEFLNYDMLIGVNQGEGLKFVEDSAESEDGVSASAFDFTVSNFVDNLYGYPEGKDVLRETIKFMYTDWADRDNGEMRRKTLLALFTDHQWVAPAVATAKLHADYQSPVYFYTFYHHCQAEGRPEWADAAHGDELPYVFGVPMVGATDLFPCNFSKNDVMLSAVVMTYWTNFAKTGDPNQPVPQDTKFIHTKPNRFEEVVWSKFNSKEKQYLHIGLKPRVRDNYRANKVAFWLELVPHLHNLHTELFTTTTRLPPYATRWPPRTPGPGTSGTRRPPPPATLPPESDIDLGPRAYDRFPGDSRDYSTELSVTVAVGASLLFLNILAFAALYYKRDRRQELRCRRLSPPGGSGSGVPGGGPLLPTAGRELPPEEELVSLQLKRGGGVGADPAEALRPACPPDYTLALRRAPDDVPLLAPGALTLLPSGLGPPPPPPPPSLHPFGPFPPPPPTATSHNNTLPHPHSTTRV
UniProt Q62889: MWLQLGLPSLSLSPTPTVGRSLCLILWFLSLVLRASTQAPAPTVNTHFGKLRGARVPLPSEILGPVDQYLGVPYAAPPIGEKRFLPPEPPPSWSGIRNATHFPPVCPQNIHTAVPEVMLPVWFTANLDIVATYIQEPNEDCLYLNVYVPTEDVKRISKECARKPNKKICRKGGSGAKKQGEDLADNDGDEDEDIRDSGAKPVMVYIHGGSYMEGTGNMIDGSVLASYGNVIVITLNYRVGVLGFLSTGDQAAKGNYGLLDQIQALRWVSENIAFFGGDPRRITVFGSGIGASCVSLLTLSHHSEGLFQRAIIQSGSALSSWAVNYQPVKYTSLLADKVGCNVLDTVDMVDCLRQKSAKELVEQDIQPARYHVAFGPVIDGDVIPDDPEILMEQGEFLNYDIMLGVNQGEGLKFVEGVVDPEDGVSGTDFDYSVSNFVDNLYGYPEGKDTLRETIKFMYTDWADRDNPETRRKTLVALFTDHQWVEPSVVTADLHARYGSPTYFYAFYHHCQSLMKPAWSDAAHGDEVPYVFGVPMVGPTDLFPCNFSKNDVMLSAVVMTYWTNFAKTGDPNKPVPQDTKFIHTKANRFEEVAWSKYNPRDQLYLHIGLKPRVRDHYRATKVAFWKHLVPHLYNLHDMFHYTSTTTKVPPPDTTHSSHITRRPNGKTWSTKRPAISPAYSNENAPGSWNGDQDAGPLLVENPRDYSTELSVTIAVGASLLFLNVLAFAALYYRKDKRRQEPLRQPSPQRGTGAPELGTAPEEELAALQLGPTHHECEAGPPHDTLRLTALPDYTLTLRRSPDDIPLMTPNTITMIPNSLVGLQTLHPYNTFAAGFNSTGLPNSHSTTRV
UniProt B0F2B4: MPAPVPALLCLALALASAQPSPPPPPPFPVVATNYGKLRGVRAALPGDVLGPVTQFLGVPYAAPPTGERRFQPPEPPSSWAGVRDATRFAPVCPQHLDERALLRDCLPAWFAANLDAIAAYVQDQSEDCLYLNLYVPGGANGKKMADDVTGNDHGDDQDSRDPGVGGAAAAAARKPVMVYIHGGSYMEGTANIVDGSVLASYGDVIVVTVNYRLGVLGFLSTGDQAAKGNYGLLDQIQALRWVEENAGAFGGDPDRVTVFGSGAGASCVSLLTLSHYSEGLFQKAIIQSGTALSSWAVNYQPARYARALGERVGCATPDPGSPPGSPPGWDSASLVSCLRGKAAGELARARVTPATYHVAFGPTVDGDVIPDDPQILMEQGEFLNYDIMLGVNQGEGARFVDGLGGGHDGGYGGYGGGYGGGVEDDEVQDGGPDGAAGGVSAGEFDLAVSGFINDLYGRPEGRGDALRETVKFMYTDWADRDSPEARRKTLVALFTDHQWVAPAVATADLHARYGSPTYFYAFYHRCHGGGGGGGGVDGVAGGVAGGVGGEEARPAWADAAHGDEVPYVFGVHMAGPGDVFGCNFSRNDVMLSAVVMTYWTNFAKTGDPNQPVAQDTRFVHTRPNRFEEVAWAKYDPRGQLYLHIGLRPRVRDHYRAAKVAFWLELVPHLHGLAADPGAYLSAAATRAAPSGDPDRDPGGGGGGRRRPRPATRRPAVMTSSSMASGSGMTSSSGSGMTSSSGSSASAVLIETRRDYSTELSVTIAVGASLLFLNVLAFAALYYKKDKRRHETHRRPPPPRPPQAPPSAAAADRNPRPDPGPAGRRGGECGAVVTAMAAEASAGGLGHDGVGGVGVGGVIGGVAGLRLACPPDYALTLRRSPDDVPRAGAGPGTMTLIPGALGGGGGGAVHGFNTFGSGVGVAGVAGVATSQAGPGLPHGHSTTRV
UniProt O88382: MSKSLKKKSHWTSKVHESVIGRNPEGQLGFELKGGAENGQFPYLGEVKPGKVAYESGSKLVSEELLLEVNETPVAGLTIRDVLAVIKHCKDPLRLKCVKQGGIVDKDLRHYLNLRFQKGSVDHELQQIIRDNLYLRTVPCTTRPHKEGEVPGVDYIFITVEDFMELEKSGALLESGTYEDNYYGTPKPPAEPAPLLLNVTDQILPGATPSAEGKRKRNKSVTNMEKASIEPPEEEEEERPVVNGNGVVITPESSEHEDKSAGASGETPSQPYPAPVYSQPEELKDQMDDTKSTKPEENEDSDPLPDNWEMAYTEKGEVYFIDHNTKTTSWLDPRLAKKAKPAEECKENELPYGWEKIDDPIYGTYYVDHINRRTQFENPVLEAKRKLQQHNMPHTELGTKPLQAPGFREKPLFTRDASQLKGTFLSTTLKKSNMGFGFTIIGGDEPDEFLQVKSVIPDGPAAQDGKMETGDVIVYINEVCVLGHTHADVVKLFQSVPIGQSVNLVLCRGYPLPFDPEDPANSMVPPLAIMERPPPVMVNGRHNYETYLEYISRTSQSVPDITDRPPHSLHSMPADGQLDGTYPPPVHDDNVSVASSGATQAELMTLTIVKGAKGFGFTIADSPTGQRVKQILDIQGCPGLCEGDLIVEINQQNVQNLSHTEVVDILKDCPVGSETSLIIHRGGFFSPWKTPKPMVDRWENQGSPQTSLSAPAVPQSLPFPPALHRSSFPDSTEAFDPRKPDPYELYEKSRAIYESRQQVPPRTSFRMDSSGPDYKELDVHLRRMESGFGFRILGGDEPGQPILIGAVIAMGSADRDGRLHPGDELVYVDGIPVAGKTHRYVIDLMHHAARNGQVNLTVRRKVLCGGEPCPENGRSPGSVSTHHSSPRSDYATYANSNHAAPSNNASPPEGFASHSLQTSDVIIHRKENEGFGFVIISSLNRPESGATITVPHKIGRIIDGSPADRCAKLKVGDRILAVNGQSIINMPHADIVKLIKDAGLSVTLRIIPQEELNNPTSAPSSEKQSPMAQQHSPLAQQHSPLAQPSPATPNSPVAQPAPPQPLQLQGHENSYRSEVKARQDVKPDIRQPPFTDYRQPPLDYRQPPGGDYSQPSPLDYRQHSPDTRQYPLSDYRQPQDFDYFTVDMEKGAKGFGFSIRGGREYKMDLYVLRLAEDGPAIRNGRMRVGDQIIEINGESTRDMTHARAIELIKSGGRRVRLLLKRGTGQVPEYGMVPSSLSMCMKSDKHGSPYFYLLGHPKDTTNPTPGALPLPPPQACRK

What was measured:
Test in all cases: two-hybrid
[1] = molecular target: Neuroligin-1 intracellular domain, wild type (rat) (UniProt Q62765)
[2] = molecular target: Neuroligin-2 intracellular domain, wild type (rat) (UniProt Q62888)
[3] = molecular target: Neuroligin-3 intracellular domain, wild type S799 (rat) (UniProt Q62889)
[4] = molecular target: Neuroligin-4 intracellular domain, wild type (mouse) (UniProt B0F2B4)
[5] = molecular target: Neuroligin-1 intracellular domain, phospho-null mutant of the Gephyrin-binding site serine (rat)
[6] = molecular target: Neuroligin-1 intracellular domain, wild type (rat) (UniProt Q62765); remark: listed apart in the source
[7] = molecular target: Neuroligin-2 intracellular domain, wild type (rat) (UniProt Q62888); remark: listed apart in the source
[8] = molecular target: Neuroligin-3 intracellular domain, wild type S799 (rat) (UniProt Q62889); remark: listed apart in the source
[9] = molecular target: Neuroligin-4 intracellular domain, phospho-null mutant of the Gephyrin-binding site serine (mouse)
[10] = molecular target: Neuroligin-4 intracellular domain, wild type (mouse) (UniProt B0F2B4); remark: listed apart in the source

binding [1]: binds | binding [2]: binds | binding [3]: binds | binding [4]: binds
Molecule: S-SCAM fragment encompassing PDZ domains 1-3 (from UniProt O88382) (domain or fragment)

binding [5]: binds | binding [6]: binds | binding [7]: binds | binding [8]: binds | binding [9]: binds | binding [10]: binds
B1: Gephyrin, full length (protein, UniProt Q03555 1-768)
chain: MATEGMILTNHDHQIRVGVLTVSDSCFRNLAEDRSGINLKDLVQDPSLLGGTISAYKIVPDEIEEIKETLIDWCDEKELNLILTTGGTGFAPRDVTPEKFPTFPFCGLQKGATKEVIEREAPGMALAMLMGSLNVTPLGMLSRPVCGIRGKTLIINLPGSKKGSQECFQFILPALPHAIDLLRDAIVKVKEVHDELEDLPSPPPPLSPPPTTSPHKQTEDKGVQCEEEEEEKKDSGVASTEDSSSSHITAAALAAKIPDSIISRGVQVLPRDTASLSTTPSESPRAQATSRLSTASCPTPKQIRRPDESKGVASRVGSLKVQSRCSSKENILRASHSAVDITKVARRHRMSPFPLTSMDKAFITVLEMTPVLGTEIINYRDGMGRVLAQDVYAKDNLPPFPASVKDGYAVRAADGPGDRFIIGESQAGEQPTQTVMPGQVMRVTTGAPIPCGADAVVQVEDTELIRESDDGTEELEVRILVQARPGQDIRPIGHDIKRGECVLAKGTHMGPSEIGLLATVGVTEVEVNKFPVVAVMSTGNELLNPEDDLLPGKIRDSNRSTLLATIQEHGYPTINLGIVGDNPDDLLNALNEGISRADVIITSGGVSMGEKDYLKQVLDIDLHAQIHFGRVFMKPGLPTTFATLDIDGVRKIIFALPGNPVSAVVTCNLFVVPALRKMQGILDPRPTIIKARLSCDVKLDPRPEYHRCILTWHHQEPLPWAQSTGNQMSSRLMSMRSANGLLMLPPKTEQYVELHKGEVVDVMVIGRL
